Experimental findings from publication PMC8997538 are described below.

Amino acid sequences for entries named in this document (tags omitted).
UniProt Q8VCF0: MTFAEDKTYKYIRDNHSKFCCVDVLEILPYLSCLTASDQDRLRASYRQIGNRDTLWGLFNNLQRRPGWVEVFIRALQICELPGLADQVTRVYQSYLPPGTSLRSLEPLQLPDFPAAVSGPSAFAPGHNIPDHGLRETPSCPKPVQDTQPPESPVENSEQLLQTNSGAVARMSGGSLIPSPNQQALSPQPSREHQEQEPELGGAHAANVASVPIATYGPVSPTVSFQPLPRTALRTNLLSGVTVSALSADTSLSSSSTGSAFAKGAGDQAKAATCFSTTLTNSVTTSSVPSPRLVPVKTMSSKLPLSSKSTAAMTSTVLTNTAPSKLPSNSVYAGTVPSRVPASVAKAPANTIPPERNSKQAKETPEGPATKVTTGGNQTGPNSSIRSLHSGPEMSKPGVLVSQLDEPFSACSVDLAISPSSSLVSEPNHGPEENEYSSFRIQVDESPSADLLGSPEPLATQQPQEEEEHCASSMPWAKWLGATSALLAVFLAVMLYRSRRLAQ

Common to all, as to test: affinity purification with mass spectrometry; lysates of Card19−/− immortalized macrophages expressing 3×Myc-CARD19 (WT; repeated with WT, G73R, Δ146, ΔTM), Myc-Trap agarose beads or negative control agarose beads; 50 mM Tris-HCl pH 7.5, 150 mM NaCl, 1% Triton X-100; gel slices analysed by mass spectrometry
In test [1] the target is T1, 3×Myc-CARD19-WT (mouse) (UniProt Q9D1I2).
T1 sequence: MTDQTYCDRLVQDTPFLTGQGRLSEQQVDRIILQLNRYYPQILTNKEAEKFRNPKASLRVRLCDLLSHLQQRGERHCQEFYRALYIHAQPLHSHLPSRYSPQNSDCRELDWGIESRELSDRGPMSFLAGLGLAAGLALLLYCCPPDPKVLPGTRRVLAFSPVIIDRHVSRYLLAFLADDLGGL

The target in test [2] is T1, 3×Myc-CARD19-WT (mouse). The source holds these as a separate data set.
Test [3] deals with 3×Myc-CARD19-ΔTM (mouse) (UniProt Q9D1I2).
Test [4] concerns the target T2, 3×Myc-CARD19-G73R (mouse) (UniProt Q9D1I2).
T2 sequence: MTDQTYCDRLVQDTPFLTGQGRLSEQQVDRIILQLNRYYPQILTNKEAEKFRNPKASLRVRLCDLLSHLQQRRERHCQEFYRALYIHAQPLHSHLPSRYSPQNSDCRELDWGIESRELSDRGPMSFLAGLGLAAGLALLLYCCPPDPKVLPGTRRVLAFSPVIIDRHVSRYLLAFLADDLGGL

Test [5] deals with T3, 3×Myc-CARD19-Δ146 (mouse) (UniProt Q9D1I2).
T3 sequence: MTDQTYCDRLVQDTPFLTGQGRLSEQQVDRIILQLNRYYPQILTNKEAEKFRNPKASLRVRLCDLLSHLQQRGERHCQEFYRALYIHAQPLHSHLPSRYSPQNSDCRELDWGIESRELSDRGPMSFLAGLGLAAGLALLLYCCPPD

Read-outs that look alike come from different tables or passages of the source. Results are given in words; binding and its absence hold for the method and conditions named. In cells and extracts the contact can be indirect. Here binding means that the protein was enriched with, or labelled near, the bait; the list need not be complete. For part of these data: No binding means not detected with the bait. For part of these data: Sequences can lack the tags named with a protein.

In the case of “mitochondrial antiviral signaling protein (MAVS) (from UniProt Q8VCF0 1-503)”, the binding entry in test [1] is on record as “no binding”.

B1: SAMM50 (protein, UniProt Q8BGH2 1-469)
chain: MGTVHARSLEPLPSSGTDFGALGEEAEFVEVEPEAKQEILENKDVVVQHVHFDGLGRTKDDIIICEIGEVFKAKNLIEVMRRSHEAREKLLRLGIFRQVDVLIDTCHGEDALPNGLDVTFEVTELRRLTGSYNTMVGNNEGSMVLGLKLPNLLGRAEKVTFQFSYGTKETSYGLSFFKPQPGNFERNFSVNLYKVTGQFPWSSLRETDRGVSAEYSFPLWKTSHTVKWEGVWRELGCLSRTASFAVRKESGHSLKSSLSHAMVIDSRNSSILPRRGALFKVNQELAGYTGGDVSFIKEDFELQLNKPLALDSVFSTSLWGGMLVPIGDKPSSIADRFYLGGPTSVRGFSMHSIGPQSEGDYLGGEAYWAGGLHLYTPLPFRPGQGGFGELFRTHFFLNAGNLCNLNYGEGPKAHIRKLAECIRWSYGAGVVLRLGNIARLELNYCIPMGVQGGDRICDGVQFGAGIRFL
On to B1, for which the figures for the binding entry in test [2], in test [3] and in test [4] were “binds”, “binds weakly” and “binds”, respectively.

B2: DNAJC11 (protein, UniProt Q5U458 1-559)
chain: MATALSEEELDNEDYYSLLNVRREASSEELKAAYRRLCMLYHPDKHRDPELKSQAERLFNLVHQAYEVLSDPQTRAIYDIYGKRGLEMEGWEVVERKRTPAEIREEFERLQREREERRLQQRTNPKGTISVGVDATDLFDRYDEEYEDVSGSGFPQIEINKMHISQSIEAPLTATDTAILSGSLSTQNGNGGGSVNFALRRVTSAKGWGELEFGAGDLQGPLFGLKLFRNLTPRCFVTTNCALQFSSRGIRPGLTTVLARNLDKNTVGYLQWRWGIQSAMNTSIVRDTKTCHFTVALQLGIPHSFALISYQHKFQDDDQTRVKGSLKAGFFGTIVEYGAERKISRHSVLGAAVSIGVPQGVSLKVKLNRASQTYFFPIHLTDQLLPSAVFYATVGPLVVYLAVHRLIIRPYLRAQKEKELEKQRENTASDILQKKQEAEAAVRLMQESVRRIIEAEESRMGLIIVNAWYGKFVNDKSRKNEKVKVIDVTVPLQCLVKDSKLILTEASKAGLPGFYDPCVGEEKSLRVLYQFRGVLHQVMVPDSEALRIPKQSHRIDTDG
As to B2, the binding result in test [2] is recorded as “no binding”.

B3: MIC19 (protein, UniProt Q9CRB9 1-227)
chain: MGGTASTRRVTFEADENENITVVKGIRLSENVIDRMKESSPSGSKSQRYSSVYGASVSDEDLKRRVAEELALEQAKKESEHQRRLKQARDLERERAAANEQLTRAVLRERISSEEERMKAKHLARQLEEKDRVMRKQDAFYKEQLARLEERSSEFYKVTTEEYQKAAEEVEAKFKRYEYHPVCADLQTKILQCYRQNTQQTLSCSALASQYMHCVNHAKQSMLEKGG
Consider B3, for which the binding entry in test [2] is listed as “binds”; in test [3], “binds weakly”; in test [4] it was “binds”.

B4: MIC25 (protein, UniProt Q91VN4 1-273)
chain: MGSAESAEARRVSFEMDEEERVRVLQGIRLSESVVNRMKDCSQPSAGEQLVPGFGPSSSAPVPTVPLPAISVPTVPAPTTPVPTAPSSSVRGLPGGTCKGPLTDVKVPSAESGGGLQSSAVKEDLKKFQQEQLAVQDEMVRVAKKEKEAAEKHLKASLPKKKASLTHEQQQSARLARELEDREAELSRRDTFYKEQQGRIQEKNAELYKLSSQQFHEAASKAESTIKPRRVEPVCSGLQAQILRCYRDHLHEVLLCSDLVKAYQHCVSTARKG
In the case of B4, the binding entry in test [2] is “binds”; in test [3], “binds weakly”; in test [4], “binds”; in test [5] it was “binds weakly”.
